Experimental data taken from PMC2815545.
Results are given in words; binding and its absence hold for the method and conditions named. Binding seen in cells or lysates may run through a third protein. Here binding means that the protein was enriched with, or labelled near, the bait; the list need not be complete.

Protein sequences, listed by entry. Tags and fused reporters are not part of them.
UniProt P05549: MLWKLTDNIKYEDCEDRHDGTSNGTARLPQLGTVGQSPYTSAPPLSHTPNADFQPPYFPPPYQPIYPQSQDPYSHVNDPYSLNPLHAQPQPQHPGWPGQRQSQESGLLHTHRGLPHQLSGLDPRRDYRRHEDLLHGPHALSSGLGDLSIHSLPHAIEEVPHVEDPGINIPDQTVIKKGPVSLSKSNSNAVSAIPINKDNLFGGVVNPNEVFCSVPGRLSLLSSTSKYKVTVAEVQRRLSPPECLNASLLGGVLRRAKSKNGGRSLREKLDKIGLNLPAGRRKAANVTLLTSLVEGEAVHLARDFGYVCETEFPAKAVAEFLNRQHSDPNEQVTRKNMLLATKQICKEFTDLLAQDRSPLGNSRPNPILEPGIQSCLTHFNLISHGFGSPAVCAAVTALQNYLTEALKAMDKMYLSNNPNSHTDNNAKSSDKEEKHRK
UniProt P12956: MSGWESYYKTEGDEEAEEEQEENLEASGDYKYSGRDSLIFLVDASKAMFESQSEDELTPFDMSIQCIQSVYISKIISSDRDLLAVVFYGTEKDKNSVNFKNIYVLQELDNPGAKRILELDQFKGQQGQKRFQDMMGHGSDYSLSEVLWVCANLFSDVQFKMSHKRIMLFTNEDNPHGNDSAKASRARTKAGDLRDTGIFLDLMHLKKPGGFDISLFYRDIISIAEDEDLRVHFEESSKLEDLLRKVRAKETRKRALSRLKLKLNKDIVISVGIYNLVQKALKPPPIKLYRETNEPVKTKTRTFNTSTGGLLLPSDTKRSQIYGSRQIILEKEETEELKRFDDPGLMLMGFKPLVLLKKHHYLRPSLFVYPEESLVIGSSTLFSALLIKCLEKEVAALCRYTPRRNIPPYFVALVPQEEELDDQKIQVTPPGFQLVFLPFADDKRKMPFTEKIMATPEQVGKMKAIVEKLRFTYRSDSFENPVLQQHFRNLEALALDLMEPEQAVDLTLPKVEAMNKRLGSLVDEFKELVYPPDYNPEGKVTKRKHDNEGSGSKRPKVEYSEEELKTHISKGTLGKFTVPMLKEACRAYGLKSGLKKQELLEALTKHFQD
UniProt P13010: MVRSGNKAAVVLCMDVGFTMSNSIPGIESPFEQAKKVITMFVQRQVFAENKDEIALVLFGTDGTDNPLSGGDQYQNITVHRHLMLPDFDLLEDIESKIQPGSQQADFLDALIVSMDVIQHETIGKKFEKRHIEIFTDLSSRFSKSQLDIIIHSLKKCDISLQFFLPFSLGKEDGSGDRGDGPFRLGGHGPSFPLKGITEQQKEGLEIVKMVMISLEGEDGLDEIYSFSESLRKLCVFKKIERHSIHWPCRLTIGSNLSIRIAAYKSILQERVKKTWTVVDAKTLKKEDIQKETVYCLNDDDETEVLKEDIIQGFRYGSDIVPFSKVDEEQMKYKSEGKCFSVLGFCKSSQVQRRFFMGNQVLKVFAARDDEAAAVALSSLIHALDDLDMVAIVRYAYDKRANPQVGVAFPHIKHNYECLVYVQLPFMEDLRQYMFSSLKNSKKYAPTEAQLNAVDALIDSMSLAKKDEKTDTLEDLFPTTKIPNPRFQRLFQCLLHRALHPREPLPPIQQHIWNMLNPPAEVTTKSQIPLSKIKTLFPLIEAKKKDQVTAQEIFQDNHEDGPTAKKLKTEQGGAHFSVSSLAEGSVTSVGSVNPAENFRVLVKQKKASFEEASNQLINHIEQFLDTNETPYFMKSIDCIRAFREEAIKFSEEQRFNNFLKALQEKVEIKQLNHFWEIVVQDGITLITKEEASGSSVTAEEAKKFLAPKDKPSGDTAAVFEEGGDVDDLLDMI

Molecular target: Glutathione-Serine-Transferase/AP-2α (GST-AP2) hybrid protein (UniProt P05549)
Assay: affinity purification with mass spectrometry; GST-AP2 or GST on MagneGST beads incubated 50 min at RT in PBS with 100 μg BT474 nuclear proteins; washed with PBS/0,01% Tween; eluted with 8 M urea, two-dimensional gel electrophoresis, silver stain, spots identified by LC-MS/MS; only the target purified

Row | Substance | binding
1 | Ku70 (from UniProt P12956 1-609) | binds
2 | Ku80 (from UniProt P13010 1-732) | binds
